According to patent US20240166767A1 (SCIRHOM, published 2024):
These are yes or no findings as the source states them, for the method shown. Some entries that bind do so weakly or less than the wild type.

Assays:
endogenous human iRhom2 [1] = molecular target: T1, endogenous human iRhom2 (human, UniProt Q6PJF5 1-856); experiment: FACS on RPMI-8226 and THP-1 cells
T1 sequence: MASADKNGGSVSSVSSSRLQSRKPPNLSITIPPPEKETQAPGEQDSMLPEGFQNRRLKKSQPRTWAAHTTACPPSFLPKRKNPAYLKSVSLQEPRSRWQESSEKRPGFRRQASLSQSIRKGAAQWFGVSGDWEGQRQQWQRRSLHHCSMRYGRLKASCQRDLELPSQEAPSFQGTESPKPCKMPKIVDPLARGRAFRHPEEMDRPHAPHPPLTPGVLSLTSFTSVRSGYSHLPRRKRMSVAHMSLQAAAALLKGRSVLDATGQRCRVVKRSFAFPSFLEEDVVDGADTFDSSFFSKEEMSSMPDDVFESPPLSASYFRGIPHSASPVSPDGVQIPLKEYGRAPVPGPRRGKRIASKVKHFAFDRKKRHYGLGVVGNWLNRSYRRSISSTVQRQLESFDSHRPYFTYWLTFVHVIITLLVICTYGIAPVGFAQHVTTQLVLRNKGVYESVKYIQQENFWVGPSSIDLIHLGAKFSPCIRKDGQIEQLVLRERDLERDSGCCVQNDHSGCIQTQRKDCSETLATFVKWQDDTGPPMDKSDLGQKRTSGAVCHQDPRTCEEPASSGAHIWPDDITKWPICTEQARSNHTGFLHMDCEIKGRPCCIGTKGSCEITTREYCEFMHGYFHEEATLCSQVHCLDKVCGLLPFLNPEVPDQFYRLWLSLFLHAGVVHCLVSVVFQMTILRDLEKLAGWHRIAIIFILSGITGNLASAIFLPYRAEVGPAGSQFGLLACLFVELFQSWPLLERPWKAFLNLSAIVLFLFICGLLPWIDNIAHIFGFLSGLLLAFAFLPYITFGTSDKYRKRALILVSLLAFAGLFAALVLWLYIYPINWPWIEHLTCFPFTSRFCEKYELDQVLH

endogenous human iRhom2 [2] = molecular target: T1, endogenous human iRhom2; experiment: FACS on RPMI-8226 and THP-1 cells, 3 µg/ml

B1: humanized antibody 42-B-02 (antibody, V domains shown)
VH: QVTLRESGPALVKPTQTLTLTCTFSGFSLSTFGRGVGWIRQPPGKALEWLAHIWWDDEKYYNSALKSRLTISKDTSKNQVVLTITNMDPVDTATYYCARIQNYGSNYWYFDVWGQGTLVTVSS
VL: AIQLTQSPSSLSASVGDRVTITCRASSRISYMFWYQQKPGKAPKVLIYDTSNLASGVPSRFSGSGSGTDYTLTISSLQPEDFATYYCQQWNSYPLTFGQGTKLEIK
notes: Tested as whole humanized antibody from transient expression of heavy chain/kappa light chain pairs in CHO cells, detected with anti-human IgG; the general methods speak of human IgG1/Kappa; also called clone 42-B-02
Endogenous human iRhom2 [1]
  binding: binds
Endogenous human iRhom2 [2]
  binding: binds
